In publication PMC4962994:
These are yes or no findings as the source states them, for the method shown. In cells and extracts the contact can be indirect.

Molecular target: T1, VN::VdPls1 (Verticillium dahliae) (UniProt G2WVY3)
T1 sequence: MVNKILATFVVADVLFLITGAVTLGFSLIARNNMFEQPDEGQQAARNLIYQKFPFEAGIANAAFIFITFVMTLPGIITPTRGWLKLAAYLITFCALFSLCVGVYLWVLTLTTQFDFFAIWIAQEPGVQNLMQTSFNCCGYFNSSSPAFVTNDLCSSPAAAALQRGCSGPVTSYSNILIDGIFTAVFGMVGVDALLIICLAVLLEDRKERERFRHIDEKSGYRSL
Assay: split reporter; BiFC with Venus fragments in V. dahliae V592; transformants on MM medium overlaid with cellophane for 2 days to induce hyphopodia; CLSM observation

## VdMsb2::VC (Verticillium dahliae)
  binding: no binding
